No constants are given. Whether binding was seen depends on the method and setting.
Target: Helicobacter pylori biotin protein ligase (Helicobacter pylori (strain G27))
Assay: SEC; Superdex 75 26/60; SEC buffer 20 mM HEPES pH 7.0, 300 mM NaCl, 5%(v/v) glycerol, 1 mM TCEP; single peak at ~20 kDa (monomer expected 25 kDa); both purified

binding: no binding
B1: Helicobacter pylori biotin protein ligase (enzyme)
chain: MRQCEKRVFDSLPSTQTYLLEKLKNNELKAPILIVAKNQSTGIGSRGNIWEGTKSALTFSLALNASDLPKDLPMQANALYLGFLFKEVLKELGSQTWLKWPNDLYLGDQKIGGVLVNVYKGMRVCGIGVNRVSKKWACLDIGASDDLIIEGFLKKIEENLFWGEVLSKYALEFHRSNSFSFHNDWGELVSLKDAELLEDGRICIKGKIYDRM

From publication PMC11701928, “Co-crystal structure of Helicobacter pylori biotin protein ligase with biotinyl-5-ATP” (Acta Crystallographica Section F: Structural Biology …, 2025)
